Results are given in words; binding and its absence hold for the method and conditions named. Some binding calls cover weakened binding; strength is not graded here.
Assays:
[1] = molecular target: recombinant human CHI3L1 protein (human) (UniProt P36222); assay: two-site sandwich ELISA, AB1 bound to the solid phase
[2] = molecular target: recombinant human CHI3L1 protein (human) (UniProt P36222); assay: two-site sandwich ELISA, AB1 as capture antibody, FIG. 3
[3] = molecular target: recombinant human CHI3L1 protein (human) (UniProt P36222); assay: ELISA, FIG. 2

Amino acid sequences for entries named in this document (tags omitted). A change or cut given only in a name is not applied to a line headed by its entry.
UniProt P36222: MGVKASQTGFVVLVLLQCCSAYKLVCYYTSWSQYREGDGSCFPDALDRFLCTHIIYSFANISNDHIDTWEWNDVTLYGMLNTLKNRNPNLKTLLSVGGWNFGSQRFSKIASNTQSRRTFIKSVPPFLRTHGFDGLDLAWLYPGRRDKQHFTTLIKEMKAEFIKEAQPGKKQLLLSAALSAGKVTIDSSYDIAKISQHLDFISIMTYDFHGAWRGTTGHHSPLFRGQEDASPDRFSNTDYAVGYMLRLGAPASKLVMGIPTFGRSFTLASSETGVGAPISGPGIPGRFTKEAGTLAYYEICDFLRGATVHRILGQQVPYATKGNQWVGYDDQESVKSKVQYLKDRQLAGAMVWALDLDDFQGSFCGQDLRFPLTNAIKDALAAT

- binding [1]: binds
- binding [2]: binds
- binding [3]: binds
B1: AB1 (CH568) (antibody, mouse IgG1, kappa, V domains shown)
VH: QVQLQQTGAELVKPGASVKMSCKASGYTFTSYNMHWLKQTPGQGLEWIGLISPGNGDTSYNQKFKGKATLTADKSSNTAYMQLSSLTSEDSAVYFCARGGPTVVAHYYAMDYWGQGTSVTVSS
VL: QIVLTQSPAIMSASPGERVTMTCSASSRVSYMHWYQQKSGTSPKRWIYDTSNLASGVPARFSGSGSGTSYSLTISTMEAEDAATYYCQQWSSNPLTFGAGTKLELKR

From patent publication US20220002440A1
